Measured values published in the supplement of paper PMC9015667.
Structures can show the parent of a compound that is named as a salt. The list shows a part of the results. Single values are uncertain, as repeats are few or missing.

tested on: M229P (parental melanoma line); assay: reduction in cell viability relative to untreated/vehicle; higher = more growth inhibition; details: 200 nM; 72 h

| Structure (SMILES) | reduction in cell viability [%] |
| --- | --- |
| CO[C@H]1/C=C\C=C(/C)C(=O)NC2=CC(=O)C(NCCN(C)C)=C(C[C@@H](C)C[C@H](OC)[C@H](O)[C@@H](C)/C=C(\C)[C@@H]1OC(N)=O)C2=O [Alvespimycin hydrochloride] | 54.5 |
| O=C(O)c1cc(O)c2c(c1)C(=O)c1cccc(O)c1C2=O [Rhein] | < 0 |
| Cc1[nH]nc2ccc(-c3cncc(OC[C@@H](N)Cc4ccccc4)c3)cc12 | < 0 |
| CN1CCCN(C(=O)c2cccc(-c3ccc(/C=C4/C(=O)Nc5ccc(Cl)cc54)o3)c2)CC1 | 11.5 |
| CCCCS(=N)(=O)CCC(N)C(=O)O (stereo not drawn) [Buthionine sulfoximine] | < 0 |
| Cc1[nH]c(/C=C2\C(=O)Nc3ccccc32)c(C)c1CCC(=O)O [Orantinib] | < 0 |
| C1CCC(C(CC2CCCCN2)C2CCCCC2)CC1 (stereo not drawn) [Perhexiline] | < 0 |
| Cc1ccc(S(=O)(=O)N[C@@H](Cc2ccccc2)C(=O)CCl)cc1 | < 0 |
| NC(=O)Cc1cccc(C(=O)c2ccccc2)c1N [Nepafenac] | < 0 |
| Nc1ncnc2c1c(-c1cccc(OCc3ccccc3)c1)cn2C1CC(CN2CCCC2)C1 (stereo not drawn) | < 0 |
| N#CN=C(NCCCCCCOc1ccc(Cl)cc1)Nc1ccncc1 | 85.3 |
| O=c1[nH]c(=O)n(C2CCCO2)cc1F (stereo not drawn) [Tegafur] | < 0 |
| COc1cc2ncnc(Nc3cccc(Br)c3)c2cc1OC | < 0 |
| O=C(O)Cc1ccccc1Nc1c(Cl)cccc1Cl [Diclofenac sodium] | < 0 |
| CS(=O)(=O)c1cc(F)cc2c3c(n(Cc4ccc(Cl)cc4)c12)[C@@H](CC(=O)O)CC3 [Laropiprant] | < 0 |
| Cc1cnc(Nc2ccc(F)cc2Cl)nc1-c1c[nH]c(C(=O)N[C@H](CO)c2cccc(Cl)c2)c1 | 21.6 |
| O=C(O)c1ccc(-n2nc(-c3ccccc3O)nc2-c2ccccc2O)cc1 [Deferasirox] | < 0 |
| COCC(=O)NC/C=C/c1ccc2ncnc(Nc3ccc(Oc4ccc(C)nc4)c(C)c3)c2c1 | < 0 |
| COc1cccc2c1C(=O)c1c(O)c3c(c(O)c1C2=O)C[C@@](O)(C(=O)CO)C[C@@H]3O[C@H]1C[C@H](N)[C@@H](O)[C@H](C)O1 [Epirubicin hydrochloride] | 7.87 |
| Cn1cc(/C=C/C(=O)c2cccc(F)c2)cc1/C=C/C(=O)NO | < 0 |
| CC(C)(OCc1nn(Cc2ccccc2)c2ccccc12)C(=O)O [Bindarit] | < 0 |
| CC[C@H](CO)Nc1nc(NCc2ccccc2)c2ncn(C(C)C)c2n1 [Seliciclib] | < 0 |
| CC(=O)N1CCN(c2ccc(OCc3nn(C)c(C)c3-c3cccc4c(CCCOc5cccc6ccccc56)c(C(=O)O)n(Cc5cccnc5)c34)cc2)CC1 | < 0 |
| NCCCC(N)(C(=O)O)C(F)F (stereo not drawn) [Eflornithine Hydrochloride] | < 0 |
| O=C(Nc1ncc(SCCN2CCCC2)s1)[C@]1(c2ccc(S(=O)(=O)C3CC3)cc2)C[C@H]1C1CCCCC1 | < 0 |
| Cc1cc(Nc2cc(NC(=O)c3c(Cl)cccc3Cl)ccn2)nc(N)n1 | 12.4 |
| C#Cc1cccc(Nc2ncnc3cc(OCCOC)c(OCCO)cc23)c1 | < 0 |
| Nc1nc(OCc2ccccc2)c2nc[nH]c2n1 [O6-Benzylguanine] | < 0 |

An excerpt of the results above:

| Structure (SMILES) | reduction in cell viability [%] |
| --- | --- |
| O=C(O)c1ccc(-n2nc(-c3ccccc3O)nc2-c2ccccc2O)cc1 [Deferasirox] | < 0 |
| COCC(=O)NC/C=C/c1ccc2ncnc(Nc3ccc(Oc4ccc(C)nc4)c(C)c3)c2c1 | < 0 |
